Source: paper PMC9696794 (International Journal of Molecular Sciences, 2022)

test: general procedure: Fmoc solid-phase peptide synthesis; Rink Amide ChemMatrix resin (loading 0.50 mmol/g); HCTU/DIEA; conditions: whole synthesis, UPLC-UV

Substance	final HPLC purity [%]
C10- CGKKWWGWKC KL-NH2	96.40
C10- CGRRWGWWRC RL-NH2	95.53
C8- CGKKPGGWKC KL-NH2	99.16
C12- CGKKWWGWKC KL-NH2	96.38
C10- CGKKPGGWKC KL-NH2	95.87
C12- CGKKPGGWKC KL-NH2	96.01
C12- CGRRWGWWRC RL-NH2	95.16
C8- CGKKWWGWKC KL-NH2	98.04
C8- CGRRWGWWRC RL-NH2	95.04

same assay, conditions: whole synthesis, UPLC-UV, one disulfide bridge, sequence written open

Substance	final HPLC purity [%]
C10- (CGRRWGWWRC)RL-NH2	93.65
C12- (CGKKWWGWKC)KL-NH2	95.32
(CGKKPWWWKC)KL-NH2	95.79
(CGRRWWGWRC)RL-NH2	95.74
C10- (CGKKWWGWKC)KL-NH2	91.79
C8 -(CGKKPGGWKC)KL-NH2	92.83
C8- (CGRRWGWWRC)RL-NH2	94.15
(CGRRPWWWRC)RL-NH2	95.61
C8- (CGKKWWGWKC)KL-NH2	96.32
(CGKKWGWWKC)KL-NH2	96.43
C12 -(CGKKPGGWKC)KL-NH2	93.36
C12- (CGRRWGWWRC)RL-NH2	92.52
(CGRRWGWWRC)RL-NH2	90.59
C10 -(CGKKPGGWKC)KL-NH2	91.51
(CGKKWWGWKC)KL-NH2	96.53
(CGKKPGGWKC)KL-NH2	100.00
